Results are given in words; binding and its absence hold for the method and conditions named. In cells and extracts the contact can be indirect. Some results given as binding are weak or reduced against the parent protein; the word gives no strength. Sequences can lack the tags named with a protein.
Experiments:
Assay in all cases: co-IP; 293T cells co-transfected with HA-Rab40c and one FLAG-tagged PP6 component or PP6R1 deletion mutant; anti-FLAG IP, anti-HA blot
[1] = molecular target: T1, FLAG-PP6R1(518-881) (human) (UniProt Q9UPN7)
T1 sequence: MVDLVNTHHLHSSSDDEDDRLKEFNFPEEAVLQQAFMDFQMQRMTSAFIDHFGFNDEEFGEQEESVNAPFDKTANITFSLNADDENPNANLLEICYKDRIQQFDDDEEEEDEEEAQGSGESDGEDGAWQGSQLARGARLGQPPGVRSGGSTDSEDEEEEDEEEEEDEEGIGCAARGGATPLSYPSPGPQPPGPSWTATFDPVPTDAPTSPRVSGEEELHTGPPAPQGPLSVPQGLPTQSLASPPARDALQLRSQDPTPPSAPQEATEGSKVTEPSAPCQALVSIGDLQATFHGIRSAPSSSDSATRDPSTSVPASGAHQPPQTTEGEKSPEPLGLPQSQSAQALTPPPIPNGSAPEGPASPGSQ

Protein sequences, listed by entry. Tags and fused reporters are not part of them.
UniProt Q96S21: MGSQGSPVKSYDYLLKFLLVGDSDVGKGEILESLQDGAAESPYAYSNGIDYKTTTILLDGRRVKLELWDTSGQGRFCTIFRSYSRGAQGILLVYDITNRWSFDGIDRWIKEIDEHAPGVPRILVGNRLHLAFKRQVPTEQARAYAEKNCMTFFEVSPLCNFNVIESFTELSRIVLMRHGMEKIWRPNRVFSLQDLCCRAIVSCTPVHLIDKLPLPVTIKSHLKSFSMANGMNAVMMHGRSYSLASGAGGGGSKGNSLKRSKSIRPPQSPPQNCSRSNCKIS

FLAG-PP6c (human) = molecular target: T2, FLAG-PP6c (human) (UniProt O00743)
T2 sequence: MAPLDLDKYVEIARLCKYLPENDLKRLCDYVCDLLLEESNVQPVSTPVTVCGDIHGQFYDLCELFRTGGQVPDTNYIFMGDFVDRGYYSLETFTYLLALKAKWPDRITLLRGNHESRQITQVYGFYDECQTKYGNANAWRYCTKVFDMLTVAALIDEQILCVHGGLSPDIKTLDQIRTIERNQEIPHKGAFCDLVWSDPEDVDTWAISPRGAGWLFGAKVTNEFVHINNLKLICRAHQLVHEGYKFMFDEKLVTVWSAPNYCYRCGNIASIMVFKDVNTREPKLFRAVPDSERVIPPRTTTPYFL

FLAG-ANKRD52 (human) = molecular target: T3, FLAG-ANKRD52 (human) (UniProt Q8NB46)
T3 sequence: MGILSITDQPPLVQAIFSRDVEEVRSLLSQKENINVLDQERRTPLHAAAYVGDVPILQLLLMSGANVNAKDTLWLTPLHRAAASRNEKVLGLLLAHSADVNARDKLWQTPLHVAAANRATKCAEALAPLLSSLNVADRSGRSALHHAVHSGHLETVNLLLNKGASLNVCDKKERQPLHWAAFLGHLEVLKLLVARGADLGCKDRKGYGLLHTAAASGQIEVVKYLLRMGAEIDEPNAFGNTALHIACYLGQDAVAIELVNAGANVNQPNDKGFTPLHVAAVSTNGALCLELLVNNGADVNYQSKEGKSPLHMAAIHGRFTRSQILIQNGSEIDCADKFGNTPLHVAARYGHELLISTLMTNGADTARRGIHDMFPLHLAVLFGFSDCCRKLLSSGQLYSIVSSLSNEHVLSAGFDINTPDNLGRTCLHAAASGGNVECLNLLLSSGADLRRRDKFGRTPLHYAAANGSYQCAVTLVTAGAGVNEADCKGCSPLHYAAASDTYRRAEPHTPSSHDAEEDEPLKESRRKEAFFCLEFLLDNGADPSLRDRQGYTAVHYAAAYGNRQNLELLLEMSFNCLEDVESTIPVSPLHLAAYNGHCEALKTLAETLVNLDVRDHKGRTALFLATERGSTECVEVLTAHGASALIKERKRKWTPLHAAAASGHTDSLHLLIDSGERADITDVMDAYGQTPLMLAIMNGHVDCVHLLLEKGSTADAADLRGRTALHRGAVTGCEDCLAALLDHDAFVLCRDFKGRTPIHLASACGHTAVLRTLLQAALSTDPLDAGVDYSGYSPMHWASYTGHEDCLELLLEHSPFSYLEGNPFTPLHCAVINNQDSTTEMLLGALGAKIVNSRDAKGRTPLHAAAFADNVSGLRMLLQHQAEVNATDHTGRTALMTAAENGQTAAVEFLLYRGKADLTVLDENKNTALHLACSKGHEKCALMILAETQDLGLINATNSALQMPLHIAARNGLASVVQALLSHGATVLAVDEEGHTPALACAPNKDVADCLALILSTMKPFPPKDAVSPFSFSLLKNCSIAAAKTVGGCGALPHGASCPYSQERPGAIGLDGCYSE

- binding [1]: binds
- binding (FLAG-PP6c (human)): binds
- binding (FLAG-ANKRD52 (human)): binds
Substance: HA-Rab40c (from UniProt Q96S21 1-281)

From PMC9070665
